Reference: US10047050B2, “3,4-di-substituted pyridine compound, methods of using and compositions comprising the same” (ARDEA BIOSCIENCES, INC., priority 2011, dated 2018)
Several values for one entry are separate records, joined by “and”; a condition that tells them apart may be missing. Equal values may be shown once. This continues a long series; more values of the same kind are listed elsewhere.

Test system: serum uric acid
Test: Multi-dose Phase I clinical trial, serum uric acid (sUA), once daily for 10 days
Format: in vivo, human
Description: A Phase 1, Randomized, Double-Blind, Placebo-Controlled Study to Evaluate Safety, Tolerability, Pharmacokinetics and Preliminary Food Effect of Multiple Rising Doses of a URAT1 Inhibitor, in Healthy Adult Male Volunteers.
Fasted subjects receive oral doses of active or placebo, once daily, for 10 days, at the following doses:
36 subjects in 3 dose groups, 12 subjects/group, are randomized […] to receive active (9/group) or placebo ([…]). All study procedures are the same regardless of whether subject receives active or placebo. Total duration of subject participation, including screening period, is ˜2-4 weeks, and the total volume of blood collected from each subject during the entire study <500 mL, (less than typically collected during a volunteer blood donation).
5 mg, active and placebo, tablets packaged in 35 count HDPE bottles, stored at controlled room temperature (15-30° C.). Placebo tablets are designed to match the active tablets—identical size, form, taste, and color, and containing the same excipients. 1 mg doses were administered as oral solutions.
Subjects dosed in the morning of Days 1-10 with ˜240 mL of room temp water.
Urine, serum and plasma samples collected periodically
PD samples frozen (−20° C.) and stored; all samples from a given subject assayed in a single analytical run.

[1] = group 7, 1 mg once daily for 10 days, Time 246 (post dosing), individual subjects 4-12
[2] = group 7, 1 mg once daily for 10 days, Time 252 (post dosing), individual subjects 4-12
[3] = group 7, 1 mg once daily for 10 days, Time 264 (post dosing), individual subjects 4-12
[4] = group 7, 1 mg once daily for 10 days, Time 270 (post dosing), individual subjects 4-12
[5] = group 7, 1 mg once daily for 10 days, Time 288 (post dosing), individual subjects 4-12
[6] = group 7, 1 mg once daily for 10 days, Time 312 (post dosing), individual subjects 4-12
[7] = group 8, 5 mg once daily for 10 days, Time 0, individual subjects 4-10
[8] = group 8, 5 mg once daily for 10 days, Time 6, individual subjects 4-10
[9] = group 8, 5 mg once daily for 10 days, Time 12, individual subjects 4-10
[10] = group 8, 5 mg once daily for 10 days, Time 24, individual subjects 4-10
[11] = group 8, 5 mg once daily for 10 days, Time 48, individual subjects 4-10
[12] = group 8, 5 mg once daily for 10 days, Time 72, individual subjects 4-10
[13] = group 8, 5 mg once daily for 10 days, Time 96, individual subjects 4-10

For `CC(C)(Sc1ccncc1-c1ccc(C#N)c2ccccc12)C(=O)O` [2-((3-(4-cyanonaphthalen-1-yl)pyridin-4-yl)thio)-2-methylpropanoic acid], the “% sUA change (from baseline)” value (group 7, 1 mg once daily for 10 days, Time 168, individual subjects 4-12) was −10.3% and 3.6% and 3.7% and 2.9% and −1.4% and −6.0% and 4.8% and −10.0% and 5.1%, the “% sUA change (from baseline)” value (group 7, 1 mg once daily for 10 days, Time 192, individual subjects 4-12) was −20.7% and −10.7% and −9.3% and −7.1% and −11.6% and −11.9% and −9.7% and −15.0% and −6.8% and the “% sUA change (from baseline)” value (group 7, 1 mg once daily for 10 days, Time 216, individual subjects 4-12) was −19.0% and −12.5% and −13.0% and −12.9% and −15.9% and −20.9% and −9.7% and −18.3% and 0.0%. The “% sUA change (from baseline)” value (group 7, 1 mg once daily for 10 days, Time 222 (post dosing), individual subjects 4-12) was −19.0% and −7.1% and −9.3% and −10.0% and −14.5% and −13.4% and −12.9% and −16.7% and −6.8%, the “% sUA change (from baseline)” value (group 7, 1 mg once daily for 10 days, Time 228 (post dosing), individual subjects 4-12) was −25.9% and −14.3% and −9.3% and −11.4% and −18.8% and −17.9% and −14.5% and −20.0% and −8.5% and the “% sUA change (from baseline)” value (group 7, 1 mg once daily for 10 days, Time 240 (post dosing), individual subjects 4-12) was −17.2% and −1.8% and −1.9% and −1.4% and −10.1% and −7.5% and −4.8% and −13.3% and 1.7%. For the same compound, the “% sUA change (from baseline)” value [1] was −24.1% and −14.3% and −9.3% and −8.6% and −15.9% and −16.4% and −8.1% and −15.0% and −6.8%, the “Absolute sUA concentration” value [1] was 4.8 mg/dL and 4.9 mg/dL and 6.4 mg/dL and 5.8 mg/dL and 5.6 mg/dL and 5.7 mg/dL and 5.1 mg/dL and 5.5 mg/dL and the “% sUA change (from baseline)” value [2] was −22.4% and −10.7% and −7.4% and −1.4% and −11.6% and −11.9% and −4.8% and −16.7% and −8.5%. The “Absolute sUA concentration” value [2] was 4.5 mg/dL and 5.0 mg/dL (3×) and 6.9 mg/dL and 6.1 mg/dL and 5.9 mg/dL (2×) and 5.4 mg/dL, the “% sUA change (from baseline)” value [3] was −22.4% and −8.9% and −5.6% and −8.6% and −10.1% and −10.4% and −8.1% and −15.0% and −3.4% and the “Absolute sUA concentration” value [3] was 4.5 mg/dL and 5.1 mg/dL (3×) and 6.4 mg/dL and 6.2 mg/dL and 6.0 mg/dL and 5.7 mg/dL (2×). For the same compound, the “% sUA change (from baseline)” value [4] was −29.3% and −17.9% and −11.1% and −14.3% and −14.5% (2×) and −19.4% and −21.7% and −13.6%, the “Absolute sUA concentration” value [4] was 4.1 mg/dL and 4.6 mg/dL and 4.8 mg/dL and 6.0 mg/dL and 5.9 mg/dL and 5.4 mg/dL and 5.3 mg/dL and 4.7 mg/dL and 5.1 mg/dL and the “% sUA change (from baseline)” value [5] was −32.8% and −19.6% and −16.7% and −14.3% and −15.9% and −19.4% and −16.1% and −26.7% and −16.9%. For the same compound, the “Absolute sUA concentration” value [5] was 3.9 mg/dL and 4.5 mg/dL (2×) and 6.0 mg/dL and 5.8 mg/dL and 5.4 mg/dL and 5.2 mg/dL and 4.4 mg/dL and 4.9 mg/dL, the “% sUA change (from baseline)” value [6] was −24.1% and −16.1% and −14.8% and −11.4% and −11.6% and −16.4% and −12.9% and −18.3% and −8.5% and the “Absolute sUA concentration” value [6] was 4.4 mg/dL and 4.7 mg/dL and 4.6 mg/dL and 6.2 mg/dL and 6.1 mg/dL and 5.6 mg/dL and 5.4 mg/dL (2×) and 4.9 mg/dL. For the same compound, the “% sUA change (from baseline)” value [7] was 0%, the “Absolute sUA concentration” value [7] was 5.3 mg/dL and 6.5 mg/dL (2×) and 6.0 mg/dL and 5.8 mg/dL and 5.6 mg/dL and 5.5 mg/dL and the “% sUA change (from baseline)” value [8] was −15.1% and −18.5% (2×) and −20.0% and −17.2% and −23.2% and −30.9%. The “Absolute sUA concentration” value [8] was 4.5 mg/dL and 5.3 mg/dL (2×) and 4.8 mg/dL (2×) and 4.3 mg/dL and 3.8 mg/dL, the “% sUA change (from baseline)” value [9] was −24.5% and −20.0% and −18.5% and −25.0% and −20.7% and −30.4% and −40.0% and the “Absolute sUA concentration” value [9] was 4.0 mg/dL and 5.2 mg/dL and 5.3 mg/dL and 4.5 mg/dL and 4.6 mg/dL and 3.9 mg/dL and 3.3 mg/dL. For the same compound, the “% sUA change (from baseline)” value [10] was −28.3% and −18.5% and −13.8% and −16.7% and −6.9% and −25.0% and −38.2%, the “Absolute sUA concentration” value [10] was 3.8 mg/dL and 5.3 mg/dL and 5.6 mg/dL and 5.0 mg/dL and 5.4 mg/dL and 4.2 mg/dL and 3.4 mg/dL and the “% sUA change (from baseline)” value [11] was −43.4% and −20.0% and −36.9% and −26.7% and −12.1% and −33.9% and −43.6%. The “Absolute sUA concentration” value [11] was 3.0 mg/dL and 5.2 mg/dL and 4.1 mg/dL and 4.4 mg/dL and 5.1 mg/dL and 3.7 mg/dL and 3.1 mg/dL, the “% sUA change (from baseline)” value [12] was −39.6% and −30.8% and −35.4% and −28.3% and −19.0% and −37.5% and −45.5% and the “Absolute sUA concentration” value [12] was 3.2 mg/dL and 4.5 mg/dL and 4.2 mg/dL and 4.3 mg/dL and 4.7 mg/dL and 3.5 mg/dL and 3.0 mg/dL. For the same compound, the “% sUA change (from baseline)” value [13] was −32.1% and −29.2% and −33.8% and −30.0% and −17.2% and −33.9% and −36.4% and the “Absolute sUA concentration” value [13] was 3.6 mg/dL and 4.6 mg/dL and 4.3 mg/dL and 4.2 mg/dL and 4.8 mg/dL and 3.7 mg/dL and 3.5 mg/dL.
